According to the supplement of paper PMC12819154, “High-throughput peptide-centric local stability assay extends protein–ligand identification to membrane proteins, tissues and bacteria” (Nature Structural & Molecular Biology, 2025):
The list shows a part of the results. Most entries show no effect beyond the scatter of the controls.

Protein sequences, listed by entry. Tags and fused reporters are not part of them. Lines headed by an entry give the natural chain unless they say otherwise; changes in a name come on top.
UniProt O75390: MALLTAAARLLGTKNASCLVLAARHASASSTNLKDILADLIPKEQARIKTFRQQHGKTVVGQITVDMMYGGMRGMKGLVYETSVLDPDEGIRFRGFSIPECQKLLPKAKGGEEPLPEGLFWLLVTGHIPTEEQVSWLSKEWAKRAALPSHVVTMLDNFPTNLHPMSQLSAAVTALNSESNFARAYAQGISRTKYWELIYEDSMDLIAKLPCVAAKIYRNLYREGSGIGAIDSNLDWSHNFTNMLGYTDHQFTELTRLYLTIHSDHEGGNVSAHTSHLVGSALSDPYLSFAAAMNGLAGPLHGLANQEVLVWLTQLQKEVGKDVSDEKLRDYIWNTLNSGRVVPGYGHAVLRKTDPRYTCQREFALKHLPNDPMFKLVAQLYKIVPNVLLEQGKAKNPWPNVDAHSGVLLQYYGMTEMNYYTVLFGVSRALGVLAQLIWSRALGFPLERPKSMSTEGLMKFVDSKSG
UniProt O43747: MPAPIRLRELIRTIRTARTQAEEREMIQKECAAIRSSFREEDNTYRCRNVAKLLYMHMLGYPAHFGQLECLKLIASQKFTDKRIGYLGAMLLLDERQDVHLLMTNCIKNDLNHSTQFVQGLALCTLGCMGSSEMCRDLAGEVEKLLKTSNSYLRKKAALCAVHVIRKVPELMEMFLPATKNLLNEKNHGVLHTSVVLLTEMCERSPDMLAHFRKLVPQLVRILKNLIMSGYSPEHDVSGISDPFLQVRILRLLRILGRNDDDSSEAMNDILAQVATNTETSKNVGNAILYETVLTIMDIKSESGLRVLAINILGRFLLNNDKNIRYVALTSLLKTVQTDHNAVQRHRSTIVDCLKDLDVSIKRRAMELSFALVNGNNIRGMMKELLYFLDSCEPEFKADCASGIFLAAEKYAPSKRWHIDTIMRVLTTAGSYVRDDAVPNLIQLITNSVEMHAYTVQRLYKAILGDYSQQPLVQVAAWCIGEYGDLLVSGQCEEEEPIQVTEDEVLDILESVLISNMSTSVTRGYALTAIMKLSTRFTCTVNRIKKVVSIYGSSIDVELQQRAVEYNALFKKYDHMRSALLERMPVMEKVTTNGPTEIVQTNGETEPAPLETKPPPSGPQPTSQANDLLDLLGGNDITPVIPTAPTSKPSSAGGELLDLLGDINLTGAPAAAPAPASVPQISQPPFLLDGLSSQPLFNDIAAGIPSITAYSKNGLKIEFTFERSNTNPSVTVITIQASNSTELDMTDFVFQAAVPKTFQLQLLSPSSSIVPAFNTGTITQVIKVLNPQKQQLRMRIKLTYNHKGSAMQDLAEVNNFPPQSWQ
UniProt O60306: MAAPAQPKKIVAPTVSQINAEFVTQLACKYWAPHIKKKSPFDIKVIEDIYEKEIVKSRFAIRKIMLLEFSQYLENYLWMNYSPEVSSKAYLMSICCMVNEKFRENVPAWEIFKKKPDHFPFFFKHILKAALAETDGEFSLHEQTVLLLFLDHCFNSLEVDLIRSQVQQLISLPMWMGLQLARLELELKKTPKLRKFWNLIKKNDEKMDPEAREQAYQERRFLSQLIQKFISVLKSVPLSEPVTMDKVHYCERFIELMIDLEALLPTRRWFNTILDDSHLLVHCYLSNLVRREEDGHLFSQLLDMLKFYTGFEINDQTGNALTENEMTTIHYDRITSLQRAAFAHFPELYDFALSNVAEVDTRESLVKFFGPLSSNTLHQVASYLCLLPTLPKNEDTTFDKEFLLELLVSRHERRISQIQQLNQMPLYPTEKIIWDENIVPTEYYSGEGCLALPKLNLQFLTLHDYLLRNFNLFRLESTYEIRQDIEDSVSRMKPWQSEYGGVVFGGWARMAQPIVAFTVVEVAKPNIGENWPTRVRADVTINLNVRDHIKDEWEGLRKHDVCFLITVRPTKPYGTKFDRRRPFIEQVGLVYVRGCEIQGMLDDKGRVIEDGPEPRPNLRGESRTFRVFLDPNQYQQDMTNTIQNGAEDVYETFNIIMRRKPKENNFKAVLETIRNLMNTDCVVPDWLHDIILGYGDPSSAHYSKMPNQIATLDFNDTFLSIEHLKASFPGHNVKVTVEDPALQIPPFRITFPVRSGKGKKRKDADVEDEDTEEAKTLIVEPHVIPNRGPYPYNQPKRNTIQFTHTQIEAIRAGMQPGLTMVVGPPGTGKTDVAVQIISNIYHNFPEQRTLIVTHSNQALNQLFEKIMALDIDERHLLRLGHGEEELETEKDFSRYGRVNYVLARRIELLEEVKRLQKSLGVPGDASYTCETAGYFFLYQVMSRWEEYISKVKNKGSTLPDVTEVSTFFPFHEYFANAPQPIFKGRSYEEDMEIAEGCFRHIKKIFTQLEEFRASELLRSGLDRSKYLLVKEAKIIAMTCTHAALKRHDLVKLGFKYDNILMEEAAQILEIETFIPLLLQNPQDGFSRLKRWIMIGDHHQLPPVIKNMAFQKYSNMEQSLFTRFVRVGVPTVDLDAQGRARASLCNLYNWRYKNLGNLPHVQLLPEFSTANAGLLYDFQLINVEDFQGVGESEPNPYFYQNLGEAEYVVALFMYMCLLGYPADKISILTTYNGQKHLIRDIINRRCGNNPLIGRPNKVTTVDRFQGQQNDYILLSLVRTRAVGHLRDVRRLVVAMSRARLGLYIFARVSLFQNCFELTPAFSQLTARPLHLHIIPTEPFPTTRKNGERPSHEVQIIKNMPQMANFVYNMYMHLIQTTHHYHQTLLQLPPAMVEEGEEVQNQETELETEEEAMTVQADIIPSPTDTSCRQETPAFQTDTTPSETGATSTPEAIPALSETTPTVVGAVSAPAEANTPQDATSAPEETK
UniProt O43766: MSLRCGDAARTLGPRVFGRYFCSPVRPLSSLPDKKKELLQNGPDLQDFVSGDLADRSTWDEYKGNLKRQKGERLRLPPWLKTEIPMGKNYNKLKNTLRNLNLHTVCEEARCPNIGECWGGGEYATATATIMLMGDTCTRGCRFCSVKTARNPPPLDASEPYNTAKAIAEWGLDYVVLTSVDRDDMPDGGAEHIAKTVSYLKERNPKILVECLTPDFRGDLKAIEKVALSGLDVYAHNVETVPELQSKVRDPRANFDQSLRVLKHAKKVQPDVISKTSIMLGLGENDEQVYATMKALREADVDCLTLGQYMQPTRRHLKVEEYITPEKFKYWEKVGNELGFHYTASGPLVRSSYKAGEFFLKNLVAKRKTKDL
UniProt O75037: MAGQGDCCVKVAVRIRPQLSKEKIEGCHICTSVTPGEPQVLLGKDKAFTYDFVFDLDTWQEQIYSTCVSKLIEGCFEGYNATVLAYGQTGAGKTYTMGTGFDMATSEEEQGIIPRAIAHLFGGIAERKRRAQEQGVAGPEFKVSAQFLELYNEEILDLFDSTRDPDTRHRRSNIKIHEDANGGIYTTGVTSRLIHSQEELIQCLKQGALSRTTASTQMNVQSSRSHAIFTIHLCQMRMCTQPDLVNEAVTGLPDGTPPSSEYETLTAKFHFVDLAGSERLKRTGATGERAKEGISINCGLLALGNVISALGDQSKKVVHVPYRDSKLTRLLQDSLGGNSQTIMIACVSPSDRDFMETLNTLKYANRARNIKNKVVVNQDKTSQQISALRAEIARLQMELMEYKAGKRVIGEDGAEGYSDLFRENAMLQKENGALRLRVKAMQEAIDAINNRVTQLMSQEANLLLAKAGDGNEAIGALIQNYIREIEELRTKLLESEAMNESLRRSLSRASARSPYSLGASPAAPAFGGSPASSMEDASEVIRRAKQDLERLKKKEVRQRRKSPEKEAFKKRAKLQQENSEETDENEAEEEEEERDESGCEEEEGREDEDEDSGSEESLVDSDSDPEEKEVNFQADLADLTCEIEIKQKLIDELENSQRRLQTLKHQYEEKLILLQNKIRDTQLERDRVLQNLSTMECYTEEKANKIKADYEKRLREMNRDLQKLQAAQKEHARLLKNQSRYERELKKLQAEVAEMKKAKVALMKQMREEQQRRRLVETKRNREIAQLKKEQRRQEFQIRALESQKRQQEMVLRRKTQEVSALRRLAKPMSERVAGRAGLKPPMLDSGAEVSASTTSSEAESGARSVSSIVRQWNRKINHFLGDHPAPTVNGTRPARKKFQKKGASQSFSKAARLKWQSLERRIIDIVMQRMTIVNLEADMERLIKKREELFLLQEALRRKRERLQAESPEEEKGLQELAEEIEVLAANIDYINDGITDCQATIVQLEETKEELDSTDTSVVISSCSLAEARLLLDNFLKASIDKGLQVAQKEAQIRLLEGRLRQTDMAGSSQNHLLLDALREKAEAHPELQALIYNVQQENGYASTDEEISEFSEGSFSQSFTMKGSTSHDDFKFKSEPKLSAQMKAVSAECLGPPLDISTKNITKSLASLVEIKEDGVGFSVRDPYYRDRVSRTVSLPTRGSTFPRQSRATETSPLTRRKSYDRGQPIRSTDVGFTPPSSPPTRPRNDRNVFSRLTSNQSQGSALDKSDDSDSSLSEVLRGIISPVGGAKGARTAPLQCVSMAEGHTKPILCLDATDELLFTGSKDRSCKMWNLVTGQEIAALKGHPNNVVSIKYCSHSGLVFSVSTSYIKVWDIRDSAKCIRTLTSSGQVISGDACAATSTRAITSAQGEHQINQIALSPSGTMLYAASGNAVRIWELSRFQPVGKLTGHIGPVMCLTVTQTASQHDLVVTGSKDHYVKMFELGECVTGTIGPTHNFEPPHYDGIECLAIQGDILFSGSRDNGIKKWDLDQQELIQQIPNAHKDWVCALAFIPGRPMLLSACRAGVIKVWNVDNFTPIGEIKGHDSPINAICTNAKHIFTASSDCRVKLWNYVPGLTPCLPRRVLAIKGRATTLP
UniProt O43167: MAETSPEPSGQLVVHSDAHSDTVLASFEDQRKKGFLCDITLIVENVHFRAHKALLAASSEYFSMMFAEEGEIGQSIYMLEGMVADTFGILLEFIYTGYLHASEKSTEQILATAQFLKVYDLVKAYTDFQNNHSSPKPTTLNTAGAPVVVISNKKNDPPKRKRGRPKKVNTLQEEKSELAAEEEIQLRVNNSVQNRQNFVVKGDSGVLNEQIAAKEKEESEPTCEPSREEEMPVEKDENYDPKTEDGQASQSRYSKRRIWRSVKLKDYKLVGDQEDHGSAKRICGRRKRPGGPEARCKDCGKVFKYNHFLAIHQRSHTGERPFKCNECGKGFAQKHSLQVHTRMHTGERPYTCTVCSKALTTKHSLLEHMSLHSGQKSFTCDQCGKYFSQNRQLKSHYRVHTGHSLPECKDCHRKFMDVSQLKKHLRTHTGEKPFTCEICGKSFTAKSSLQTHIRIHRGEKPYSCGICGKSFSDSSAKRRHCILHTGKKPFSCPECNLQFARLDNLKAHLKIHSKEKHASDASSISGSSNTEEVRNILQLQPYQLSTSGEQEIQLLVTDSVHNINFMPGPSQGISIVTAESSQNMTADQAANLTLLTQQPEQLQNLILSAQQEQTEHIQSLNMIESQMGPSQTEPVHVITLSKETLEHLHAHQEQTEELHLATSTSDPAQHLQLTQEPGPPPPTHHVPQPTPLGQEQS
UniProt O60678: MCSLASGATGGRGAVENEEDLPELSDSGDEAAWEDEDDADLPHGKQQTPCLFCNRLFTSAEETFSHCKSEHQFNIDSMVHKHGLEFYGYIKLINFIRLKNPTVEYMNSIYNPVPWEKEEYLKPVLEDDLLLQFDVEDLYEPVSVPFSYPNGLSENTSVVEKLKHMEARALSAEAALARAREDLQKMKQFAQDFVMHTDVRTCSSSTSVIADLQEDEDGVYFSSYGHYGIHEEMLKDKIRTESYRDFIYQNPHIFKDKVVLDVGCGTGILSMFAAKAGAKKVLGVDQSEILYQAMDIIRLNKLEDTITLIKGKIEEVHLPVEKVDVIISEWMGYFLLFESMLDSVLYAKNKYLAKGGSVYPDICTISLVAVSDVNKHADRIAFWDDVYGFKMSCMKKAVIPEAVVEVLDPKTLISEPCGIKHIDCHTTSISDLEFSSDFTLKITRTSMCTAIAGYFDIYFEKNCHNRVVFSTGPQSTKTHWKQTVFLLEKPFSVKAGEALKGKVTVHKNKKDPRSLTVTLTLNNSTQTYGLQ
UniProt O43617, whole entry: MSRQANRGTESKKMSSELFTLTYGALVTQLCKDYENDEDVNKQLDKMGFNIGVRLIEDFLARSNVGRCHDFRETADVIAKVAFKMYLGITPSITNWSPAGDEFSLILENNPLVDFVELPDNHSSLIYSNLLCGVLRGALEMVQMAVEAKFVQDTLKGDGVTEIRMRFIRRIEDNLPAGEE
UniProt O60870: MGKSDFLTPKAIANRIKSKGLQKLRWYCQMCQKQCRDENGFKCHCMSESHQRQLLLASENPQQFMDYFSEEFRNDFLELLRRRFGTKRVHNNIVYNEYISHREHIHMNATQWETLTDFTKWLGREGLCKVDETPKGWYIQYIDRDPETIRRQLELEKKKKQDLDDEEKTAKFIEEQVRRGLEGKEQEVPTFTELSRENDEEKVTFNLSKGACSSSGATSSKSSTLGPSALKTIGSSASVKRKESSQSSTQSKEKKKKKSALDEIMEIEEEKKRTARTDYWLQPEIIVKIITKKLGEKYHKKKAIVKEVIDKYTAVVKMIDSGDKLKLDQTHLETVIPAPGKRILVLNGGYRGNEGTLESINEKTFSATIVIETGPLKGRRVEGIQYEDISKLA

compound: Cc1nc(Nc2ncc(C(=O)Nc3c(C)cccc3Cl)s2)cc(N2CCN(CCO)CC2)n1 [dasatinib]; test: log2 fold change of tryptic peptide abundance, ligand vs vehicle (limited proteolysis) (log2 ratio); higher = more trypsin-susceptible (destabilized); conditions: ligand concentration: 5 uM; sample: K562 cleared lysate

Target | log2 fold change
MAST3 (peptide sequence: HKAEFVPQLEAEDDTSYFDTR, peptide start residue: 651) (UniProt O60307) | -0.415
RNF113A (peptide sequence: SAKPVGPEDMGATAVYELDTEKER, peptide start residue: 105) (UniProt O15541) | 0.13
UniProt O60232 (peptide sequence: PAPQPPVPRPEHCEGAAAGLK, peptide start residue: 113) | 0.072
EIF1B (peptide sequence: KNICQFLLEVGIVKEEQLK, peptide start residue: 91) (UniProt O60739) | 0.145
CCNT2 (peptide sequence: LHVNDASHNHHSK, peptide start residue: 621) (UniProt O60583) | -0.126
CS (peptide sequence: GFSIPECQK, peptide start residue: 95) (UniProt O75390) | 0.468
FLNB (peptide sequence: YADEEIPR, peptide start residue: 1497) (UniProt O75369) | -0.337
AKAP8 (peptide sequence: KTSLHVAK, peptide start residue: 517) (UniProt O43823) | -0.357
SORBS3 (peptide sequence: GDIVYIHK, peptide start residue: 404) (UniProt O60504) | -0.14
OBSL1 (peptide sequence: SPHVVFHGSAHLVPTAR, peptide start residue: 601) (UniProt O75147) | 0.256
COQ9 (peptide sequence: VNDAMNMGHTAK, peptide start residue: 277) (UniProt O75208) | -0.216
PRPSAP2 (peptide sequence: LLASMMCK, peptide start residue: 129) (UniProt O60256) | 0.451
NDUFS2 (peptide sequence: IIAQCLNK, peptide start residue: 343) (UniProt O75306) | -0.299
AP1G1 (peptide sequence: IEFTFER, peptide start residue: 717) (UniProt O43747) | -0.398
AQR (peptide sequence: IELLEEVKR, peptide start residue: 906) (UniProt O60306) | 0.216
LIAS (peptide sequence: KVQPDVISK, peptide start residue: 267) (UniProt O43766) | -0.123
PSMD3 (peptide sequence: HDADGQATLLNLLLR, peptide start residue: 242) (UniProt O43242) | 0.645
TBC1D12 (peptide sequence: LLPVPAPDPVGQDRK, peptide start residue: 17) (UniProt O60347) | 0.377
KIF21B (peptide sequence: KVVHVPYRDSK, peptide start residue: 316) (UniProt O75037) | 0.741

Target | log2 fold change
RGS14 (peptide sequence: LQEALQPILEK, peptide start residue: 396) (UniProt O43566) | -0.0642
ASNA1 (peptide sequence: LEETLPVIR, peptide start residue: 222) (UniProt O43681) | -0.106
TRIM3 (peptide sequence: EKGEFTNLQGVSAASSGR, peptide start residue: 482) (UniProt O75382) | 0.494
OPA1 (peptide sequence: SPVKVTLSEGPHHVALFK, peptide start residue: 325) (UniProt O60313) | 0.427
TBL1X (peptide sequence: GVCTHTLTK, peptide start residue: 495) (UniProt O60907) | 0.43
TOM1 (peptide sequence: NNPPTIVHDK, peptide start residue: 107) (UniProt O60784) | 0.746
ZBTB24 (peptide sequence: KVNTLQEEK, peptide start residue: 167) (UniProt O43167) | 0.318
UniProt O75323 (peptide sequence: SDMLLSRK, peptide start residue: 158) | 0.884
VPS4B (peptide sequence: KFTEDFGQEG, peptide start residue: 435) (UniProt O75351) | 0.122
UniProt O75153 (peptide sequence: HYILDLLR, peptide start residue: 561) | -0.287
MED7 (peptide sequence: VMMEVQKR, peptide start residue: 137) (UniProt O43513) | -0.189
UniProt O43345 (peptide sequence: LNQSLTTTQSK, peptide start residue: 133) | 0.0636
PRMT3 (peptide sequence: QQTPCLFCNR, peptide start residue: 46) (UniProt O60678) | 0.779
PRC1 (peptide sequence: LPPSGSKPVAASTCSGK, peptide start residue: 518) (UniProt O43663) | 1.5
PDE8A (peptide sequence: HYVSIIR, peptide start residue: 318) (UniProt O60658) | 0.355
TRAPPC3 (peptide sequence: MGFNIGVR, peptide start residue: 47) (UniProt O43617) | -0.0716
KIN (peptide sequence: FIEEQVRR, peptide start residue: 172) (UniProt O60870) | -0.863
UniProt O60296 (peptide sequence: VYHSPISENPLQPLPK, peptide start residue: 754) | -0.533

Reprinted at random: 2 records from the list.
Target | log2 fold change
PDE8A (peptide sequence: HYVSIIR, peptide start residue: 318) (UniProt O60658) | 0.355
TRAPPC3 (peptide sequence: MGFNIGVR, peptide start residue: 47) (UniProt O43617) | -0.0716
